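Growth of Mycobacterium tuberculosis over 3 days (7H9 medium with glucose and tyloxapol); the read-out is not stated. Tested at 50 µM. The record gives no direction; compounds that gave an IC50 in retests scored well above the rest, so higher reads as more growth inhibition. Of about 69,000 compounds tested this way, about 760 (1.1%) reached 50% or more in at least one test.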

Results are given as percent effect.
How 0% and 100% were set is not recorded. Most values in the screen are low, and negative values occur.
This is an unselected part of the compounds tested.
Two or more numbers in one place are separate tests of the same structure; such repeats can differ widely.

| SMILES | percent effect |
|---|---|
| `CC(C)NC1CCc2c(ccc(=O)n2CCN2CCOCC2)C1.O=C(O)C(F)(F)F.O=C(O)C(F)(F)F` (stereo not given) | -6.492% and -5.87% |
| `CN1CCCN(c2nccc(-c3cc(C(=O)O)ccn3)n2)CC1` | -72.41% |
| `O=C(c1[nH]nc(C2CC2)c1Cl)N1CCCC1` | -16.71% |
| `Cc1ccc(CN(C)C(=O)c2cccc(NC(N)=O)c2)o1` | 18.66% |
| `NC(=O)c1ccc(NC(=O)Cn2cc(I)cn2)cc1` | 4.652% |
| `CC(CCn1cccn1)N1CCC(n2cc(C(C)(C)N)nn2)CC1` (stereo not given) | 19.96% and -4.323% |
| `FC(F)(F)Sc1ccc(NCc2nnc(C3CC3)o2)cc1` | 39.15% |
| `COCc1cc(NCCc2ccccn2)n2nccc2n1` | -14.8% |
| `Cn1c(C(F)(F)F)nn(CCNC(=O)c2cnc3ccccc3n2)c1=O` | 3.515% and -1.541% |
| `CCOCc1ccccc1NC(=O)NCC(c1cnn(C)c1)N(C)C` (stereo not given) | 10.4% |
| `CCCN1CCN(C(=O)c2cccnc2-n2cncn2)CC1` | -6.588% and -13.05% |
| `COc1ccc(C)cc1CN1CCOC(Cn2nc(C)nc2C)C1` (stereo not given) | 1.963% |
| `CC(C)c1ocnc1C(=O)NC1(c2cccc(F)c2)CCOCC1` | 9.776% and 20.82% |
| `CCC(CNC(=O)c1ccccc1Br)N1CCc2ccccc2C1` (stereo not given) | 17.94% and 10.77% |
| `CC(O)CNCc1c[nH]nc1-c1cc2ccccc2o1` (stereo not given) | -28.32% |
| `Cc1cc(C)n(-c2ccc(C(=O)N3CCCC3c3cnn(C)c3)cc2)n1` (stereo not given) | 6.261% |
| `O=C(NCc1ccc(Cl)s1)c1ccc(N2CCOC2=O)cc1` | 15.03% |
| `CN1C(=O)CC2(CCN(S(=O)(=O)c3cccs3)CC2)c2ccccc21` | 0.1042% and -4.245% |
| `Cc1nn(C)c(N(C)C)c1CNC(C)c1cccc(OC(C)C)c1` (stereo not given) | 19.06% |
| `CN(C)c1cnn(CC(=O)N2CCCCCC2)c(=O)c1` | 12.16% |
| `Cc1cccc(OCCN2CCN(Cc3noc(C)n3)CC2)c1` | 19.14% |
| `O=C(c1ccccc1OC1CCCC1)N1CCCC(n2cncn2)C1` (stereo not given) | 7.211% |
| `Cc1nn(C)c2nc(NC(C)c3nnn[nH]3)sc12` (stereo not given) | -9.458% and -12.31% |
| `COc1c(F)ccc(C(=O)N2CC[C@H](CO)[C@@H](O)C2)c1F` | 1.72% |
| `O=C(c1cncc(NCC2COc3ccccc3C2)n1)N1CCCC1` (stereo not given) | 5.228% |
| `CC(C)n1ncc2c1NC(=O)CC21C(=O)Nc2cc(Cl)cc(Cl)c21` (stereo not given) | 2.993% |
| `CNC(=O)C(C)(C)N1CCC[C@H]1C(=O)NCCN1CCCC1.Cl.Cl` | -10.86% and -37.69% |
| `[H][C@@]12CCN(C(=O)COC)C[C@@]1([H])O[C@@H](c1nnc(C3CC3)o1)C2` | -26.17% |
| `Cc1c(Br)c(C(=O)NC(C)c2ccccc2)nn1C` (stereo not given) | 0.3319% and -28.08% |
| `COc1ccc(-c2cnc(CN3CCn4c(C)nnc4C3)o2)cc1` | -12.13% |
| `O=C1C(NCc2nnc3n2CCCC3)CCN1c1ccccc1` (stereo not given) | -26.13% |
| `O=C(O)C(F)(F)F.O=C(O)C(F)(F)F.c1cncc(CN2CCCn3nnc(COCC4CC4)c3C2)c1` | -16.79% |
| `COc1ccc(CNCC2CCN(CCO)CC2)cc1F` | -6.502% and -16.65% |
| `CCN(Cc1nnnn1C1CC1)c1cc(C)ccc1C` | 4.182% |
| `COCc1ccc(C(=O)N2CCc3c(ncnc3N3CCOCC3)C2)o1` | 9.142% |
| `Cc1ccc(NCc2ccc(C#N)cc2)cc1-n1cnnn1` | -0.08857% |
| `CC(C)=CCN1CCN(Cc2cc(C)n[nH]2)CC1CCO` (stereo not given) | -24.98% |
| `Cc1nnc2n1CCN(C(=O)c1cc(Cl)c(Cl)n1C)C2` | 13.3% |
| `Cc1nc(C2CCCN(C(=O)c3sc(C)nc3C)C2)no1` (stereo not given) | -9.637% and -38.07% |
| `COc1ccc(CN(C)CC(=O)Nc2ccc3[nH]c(=O)[nH]c3c2)cc1F` | 16.88% |
| `Cc1cnn(CC2CCCN2C(=O)CN(C)C2CC2)c1` (stereo not given) | -1.756% |
| `Cc1cnc(CN(C)C2CCN(Cc3nc4ccccc4s3)C2)o1` (stereo not given) | -6.546% |
| `CCCc1nc(Nc2cccc(C(N)=O)c2)c2c(n1)c(C)nn2CC` | -9.483% |
| `CCOC(C)c1noc(CN2CCN(CC3CCCC3)CC2)n1` (stereo not given) | 18.73% |
| `COc1cccc(CCNC(=O)c2ccc(=O)n(C)c2)c1` | 7.316% |
| `O=C(O)C(F)(F)F.O=C(O)C(F)(F)F.O=C(O)C(F)(F)F.c1ccc(N2CC3(CCN(Cc4cccnc4)C3)C2)nc1` | -4.297% |
| `[H][C@@]12C[C@H](c3nnc(C)o3)O[C@@]1([H])CCN(C(=O)Cc1ccc(F)cc1)C2` | 2.714% |
| `CCOc1cc2c(cc1CN1CCC3(CC1)CNC(=O)C3)CCC2` | -45.73% and -10.33% |
| `[H][C@@]12CN(c3nc(C)cnc3C)C[C@]1([H])N(C1CCCC1)C(=O)O2` | -17.53% |
| `Cc1ccc(C(=O)NC2CCN(C(=O)Nc3ccccn3)CC2)s1` | -27.68% |
| `CCc1nc(CN(C)C2CCN(CC(F)(F)F)C2)no1` (stereo not given) | 29.81% |
| `CCc1nc(CN2CCCC(N(C)Cc3nc(C)c(C)o3)C2)no1` (stereo not given) | -15.07% |
| `CC(C)c1cc2c(O)nc(CSCC(=O)O)nc2s1` | 16.29% |
| `[H][C@]12CCN(C(=O)c3ccncc3F)[C@@]1([H])CC[C@H](COC)O2` | -14.11% |
| `COc1cc(C)nc(N2CCN(C(=O)CCc3ccco3)CC2)n1` | 14.92% |
| `CC(C)(C)c1oc(C(N)=O)cc1CN1CCCCC(N)C1` (stereo not given) | 20.37% and 24.71% |
| `CCN1CC(COC(=O)c2ccc(N(C)C)cc2F)CC1=O` (stereo not given) | 4.26% |
| `Cc1[nH]nc2ncc(C(=O)N3CCN(C(C)(C)C)CC3)cc12` | 26.56% |
| `CCCc1noc(C2CC(=O)N(CCN(C)C)C2)n1` (stereo not given) | -27.66% |
| `O=C(O)CN1CCOCC(Cc2ccc(Cl)cc2)C1` (stereo not given) | -21.77% |
| `Cn1c(Cn2cccn2)nnc1C1CCN(Cc2cccnc2)CC1` | 1.809% |
| `CCc1ccc(NC(=O)c2ncc(C(N)=O)cc2Cl)cc1F` | 15.26% |
| `O=C(CCn1ccc2cc(Br)ccc21)NCc1ccc(C(=O)O)cc1` | 12.44% and -6.256% |
| `CCNC(=O)N1CCC2(C1)c1ccccc1S(=O)(=O)N2CCOC` (stereo not given) | 17.44% |
| `CC(C)(N)c1cn([C@@H]2c3ccccc3C3(CCNCC3)[C@H]2O)nn1` | 20.56% |
| `Cc1ncsc1CCCNC(=O)C1CC2(CCNCC2)CN1C` (stereo not given) | -32.37% |
| `COc1cccc(CCC(=O)Nc2c(C)nn(C)c2C)c1OC` | 23.22% |
| `CN(CC(=O)Nc1nc2c(s1)CCCCCC2)C(=O)c1ccco1` | 9.221% |
| `CC(=O)N[C@@H]1CN(C2CCN(c3ccccc3F)CC2)C[C@H]1C(C)C` | 2.096% |
| `Cc1cc(NC(=O)CN2CCn3c(nnc3C3CC3)C2)n(C)n1` | -11.06% |
| `CCCN1CCc2nc(N3CCOCC3)nc(NC(C)C)c2C1` | 9.033% |
| `Cc1ccc(S(=O)(=O)N2C[C@H](C3CC3)[C@@H](N)C2)cc1F` | 14.98% |
| `CC(C)c1nc2c(n1C)CCN(CC(=O)NCc1ccccn1)C2` | -0.6897% |
| `CC(C)c1cc(CN2CCC(N)CC2)no1` | 6.803% |
| `COc1ccc([C@@H]2C[C@H](NC(C)=O)C[C@H](CCc3ccccc3)O2)cn1` | 3.94% |
| `O=C(Cn1cc(C2CC2)nn1)N(Cc1cccs1)CC1CCCO1` (stereo not given) | -6.99% |
| `O=C(O)C(F)(F)F.[H][C@@]12CN(C(=O)c3ccco3)C[C@]1([H])CN(c1ccccn1)C2` | 8.569% |
| `CCOCC(=O)N1CCC(c2nc(-c3cccnn3)no2)CC1` | 5.671% |
| `CSc1nccc(-c2cccc(-c3ccn(CC4COCCO4)n3)c2)n1` (stereo not given) | -16.15% |
| `CN(Cc1cnn(-c2ccccc2)n1)CC1CCCN1c1cccnn1` (stereo not given) | 25.6% |
| `CN(C)[C@H]1CCCCN(C(=O)CCc2csc(N)n2)C1` | -13.42% |
| `CNc1cc(C2CN(C(=O)c3cscn3)CCO2)nc(C)n1` (stereo not given) | -3.352% |
| `CC(Nc1ccn(Cc2ccccn2)n1)C(=O)NC(C)(C)C` (stereo not given) | 1.712% |

8 of the entries, repeated:

- CC(C)(C)c1oc(C(N)=O)cc1CN1CCCCC(N)C1 (stereo not given) | 20.37% and 24.71%
- Cn1c(Cn2cccn2)nnc1C1CCN(Cc2cccnc2)CC1 | 1.809%
- O=C(Cn1cc(C2CC2)nn1)N(Cc1cccs1)CC1CCCO1 (stereo not given) | -6.99%
- Cc1ccc(S(=O)(=O)N2C[C@H](C3CC3)[C@@H](N)C2)cc1F | 14.98%
- CC(C)(N)c1cn([C@@H]2c3ccccc3C3(CCNCC3)[C@H]2O)nn1 | 20.56%
- [H][C@@]12CN(c3nc(C)cnc3C)C[C@]1([H])N(C1CCCC1)C(=O)O2 | -17.53%
- O=C(O)C(F)(F)F.O=C(O)C(F)(F)F.c1cncc(CN2CCCn3nnc(COCC4CC4)c3C2)c1 | -16.79%
- CC(C)n1ncc2c1NC(=O)CC21C(=O)Nc2cc(Cl)cc(Cl)c21 (stereo not given) | 2.993%

The values are deposited in ChEMBL (CHEMBL3988442, “University of Dundee, Small-Polar-MMV Screening Library” (2021)).